From PMC3079739
No constants are given. Whether binding was seen depends on the method and setting. Some binding calls cover weakened binding; strength is not graded here.

Amino acid sequences for entries named in this document (tags omitted). A change or cut given only in a name is not applied to a line headed by its entry. Residues count along the entry.
UniProt P01555: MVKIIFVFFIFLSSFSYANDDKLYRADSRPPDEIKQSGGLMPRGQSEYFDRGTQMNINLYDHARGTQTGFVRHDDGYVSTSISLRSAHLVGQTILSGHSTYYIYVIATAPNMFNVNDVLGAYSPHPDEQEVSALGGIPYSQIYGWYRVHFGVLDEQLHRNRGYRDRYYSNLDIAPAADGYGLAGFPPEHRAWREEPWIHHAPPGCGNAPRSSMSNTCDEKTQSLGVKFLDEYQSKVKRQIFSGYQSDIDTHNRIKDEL
UniProt P07237, residues 18-508: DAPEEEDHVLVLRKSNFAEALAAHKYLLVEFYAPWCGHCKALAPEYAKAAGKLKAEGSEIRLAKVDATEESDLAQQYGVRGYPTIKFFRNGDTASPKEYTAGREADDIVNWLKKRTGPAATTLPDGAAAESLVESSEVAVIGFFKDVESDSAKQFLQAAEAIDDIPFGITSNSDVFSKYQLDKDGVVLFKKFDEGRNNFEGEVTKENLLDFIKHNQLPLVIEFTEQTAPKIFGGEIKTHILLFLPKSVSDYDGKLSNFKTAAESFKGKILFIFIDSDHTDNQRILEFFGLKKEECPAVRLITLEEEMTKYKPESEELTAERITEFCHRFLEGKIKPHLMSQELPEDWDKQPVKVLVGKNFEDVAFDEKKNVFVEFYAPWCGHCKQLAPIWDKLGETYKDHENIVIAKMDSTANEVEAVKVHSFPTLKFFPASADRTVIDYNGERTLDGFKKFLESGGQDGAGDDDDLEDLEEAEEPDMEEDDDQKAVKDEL

Biological target: Cholera toxin (CT) holotoxin (Vibrio cholerae) (UniProt P01555)
Assay: SPR; both purified

For “protein disulfide isomerase (PDI), reduced (from UniProt P07237 18-508) (enzyme)”, the binding was “binds”.
